# Source: PubChem BioAssay AID2685 (National Center for Advancing Translational Sciences (NCATS), 2010)
# The other results are listed elsewhere or left out. These are further read-outs of the screen, such as a control signal, another cell line or another target. No call is given for them. Most of these compounds were active or inconclusive in the main read-out, so they are no random draw. Potencies come from curve fits of mixed quality, noted in brackets.
# Test: qHTS Assay for Lipid Storage Modulators in Drosophila S3 Cells;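 on cell number change: cells counted by Cell Tracker Red CMTPX staining in the red channel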
# Settings: BODIPY lipid droplet fluorescence, 18-24 h; for cell number change: measured here: cell count max response, cells fed with added oleic acid
# Procedure, shortened: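 Drosophila S3 cells got compounds at several concentrations plus oleic acid (400 uM solution). Laser-scanning cytometry with 488 nm excitation read lipid droplets at 500-530 nm and cells at 575-640 nm. Percent activity was relative to 20 uM Triacsin C.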
# [1] = measured here: cell number channel AC50, cells fed with added oleic acid
# [2] = measured here: lipid fluorescence (Fed channel) AC50, cells fed with added oleic acid
SMILES,AC50 [1],cell number change [%],AC50 [2]
CC(=O)c1c(C)[nH]c(C(=O)NNC(=O)COc2cc(C)cc(C)c2)c1C,"0.103 µM [falling, full curve, poor fit]",,
Cc1cc(C)c2nc(SCC(=O)N3CCCCC3)c(C#N)cc2c1,,-1.12,
CCOCCc1nnc(NC(=O)C(CC)c2ccccc2)s1 (stereo not drawn),,22.2,"29.1 µM [rising, single point]"
COc1ccc(-c2nc(NC(=O)C3CC(=O)N(Cc4ccco4)C3)sc2C)cc1 (stereo not drawn),"2.91 µM [falling, single point]",-8.29,"6.51 µM [falling, single point]"
O=C(COc1ccc2ccccc2c1Br)Nc1cccnc1,,-10.8,"29.1 µM [falling, single point]"
CC(C)Oc1cccc(C(=O)NC(=S)Nc2ccc(N3CCN(C)CC3)cc2)c1,,-16.9,"2.06 µM [rising, partial curve, poor fit]"
CCCc1cc(=O)oc2c(C)c3occ(C)c3cc12,,14,"0.731 µM [rising, full curve]"
N#Cc1ccccc1S(=O)(=O)N1CCN(C(=O)[C@@H]2CCCN2C(=O)c2cccs2)CC1,,-7.64,
Cc1cccc(-c2cc3nc4c(c(NCc5ccco5)n3n2)CCCC4)c1,,-18.4,"2.06 µM [falling, full curve, poor fit]"
CCCc1cc(=O)n2[nH]c(NC(=O)c3ccco3)nc2n1,,19.2,
O=C(N/N=C/c1ccccn1)c1ccncc1,,-9.01,
CCNc1nc(NCC)nc(N(n2cnnc2)S(=O)(=O)c2ccc(C)cc2)n1,"0.82 µM [falling, full curve, poor fit]",-4.84,
N#Cc1nc(-c2cccc3ccccc23)oc1NCC#CCOC(=O)c1cccs1,,,"16.4 µM [falling, partial curve]"
O=C(O)C1CCCCC1C(=O)NCc1ccccc1 (stereo not drawn),,7.85,"0.731 µM [falling, full curve]"
COc1ccc(CN2c3cc(S(=O)(=O)N4CCOCC4)ccc3N3CCCC32)cc1 (stereo not drawn),,,"18.4 µM [falling, partial curve]"
O=C(Nc1ccc(Cl)cc1)C1C2C=CC3(O2)C1C(=O)N(CCCN1CCCCC1)C3C(=O)NC1CCCCC1 (stereo not drawn),,24.6,"1.16 µM [falling, single point]"
Cc1c(C(=O)N2CCCCC2)c(S(=O)(=O)N2CCN(c3ccccc3F)CC2)c(C)n1C,,-2.64,
O=C1CC(c2ccccc2)CC(O)=C1C=NCCN1CCN(C(=S)Nc2cccc(Cl)c2)CC1 (stereo not drawn),,6.2,"0.146 µM [falling, partial curve, poor fit]"
Cc1ccc(Cl)cc1N1CCN(C(=O)CN(C2CCCCC2)S(C)(=O)=O)CC1,,-29.2,"20.6 µM [falling, partial curve]"
CC1SCC(=O)N(CC(=O)NC2CCCCC2)C1=O (stereo not drawn),"0.58 µM [rising, full curve, poor fit]",16.7,
Cc1ccc(N(CC(=O)NCCc2ccccc2)C(=O)CCC(=O)Nc2cc(C)ccn2)cc1,,8.33,

SMILES,AC50 [1],cell number change [%],AC50 [2]
COc1ccc(-n2cc(-c3ccc(OC(F)F)cc3)[n+]3c2CCCCC3)cc1,"1.46 µM [rising, single point]",-55.3,"6.51 µM [rising, single point]"
O=C(COC(=O)Cc1c[nH]c2ccccc12)Nc1c(Cl)cccc1C(F)(F)F,"29.1 µM [falling, single point]",-31.5,"13 µM [falling, partial curve]"
CCOc1cccc(/C=N/NC(=O)c2cccnc2)c1O,,-5.51,"0.82 µM [rising, full curve, poor fit]"
O=C(OCCOc1ccc(Br)cc1)c1ccc(Cl)c(S(=O)(=O)N2CCOCC2)c1,,-2.81,
O=C(/C=C/c1cccc(F)c1)NC1CCN(Cc2ccccc2)CC1,,4.76,
COc1cc(CCC(=O)OCC(=O)Nc2ccccc2OC(F)F)cc(OC)c1OC,,24.3,
O=c1c2ccccc2nc2n1-c1ccccc1CCC2,,0.414,"0.184 µM [rising, full curve, poor fit]"
O=C(NCc1cccc(C(F)(F)F)c1)c1ccc(=O)[nH]c1,,6.58,
O=C(CCCC(=O)Nc1cccc(Br)c1)N/N=C/c1cc([N+](=O)[O-])ccc1O,"0.731 µM [rising, full curve, poor fit]",16.6,"1.64 µM [rising, partial curve]"
CCOC(=O)c1ccc(N2C(=O)c3n[nH]c(C)c3C2c2ccc(OC)c(OC)c2)cc1 (stereo not drawn),,-4.65,"0.58 µM [rising, single point]"
COc1ccc([N+](=O)[O-])cc1Nc1c2ccccc2nc2ccccc12,"11.6 µM [falling, partial curve]",-81.4,
Cc1cc(C)c2c(c1)[C@@H]1C=CC[C@@H]1[C@H](c1ccc(S(=O)(=O)N3CCOCC3)cc1)N2,,2.97,"6.51 µM [falling, single point]"
O=C1CCC(=O)N1CCCCCc1nc(-c2ccccc2)no1,"25.9 µM [rising, single point]",33.6,"18.4 µM [rising, partial curve]"
CCN(CC)C(=O)COc1ccc(/C=C(\C#N)S(=O)(=O)c2ccccc2)cc1OC,,7.5,
O=c1[nH]c(C2CCN(S(=O)(=O)c3ccccc3F)CC2)nc2c1nnn2Cc1ccc(OC(F)(F)F)cc1,,5.37,
CCOC(=O)c1[nH]c(C)c(C(=O)Nc2ccccc2C)c1C,,,"0.411 µM [rising, full curve]"
CC(=O)N[C@H]1C[C@@H]1c1ccccc1,,6.07,"4.11 µM [falling, full curve]"
COc1ccc(C(=O)Nc2cccc(/C(C)=N/NC(=O)c3ccc([N+](=O)[O-])cc3)c2)cc1OC,,17.2,"29.1 µM [rising, single point]"
Cc1c(NC(=O)CSc2ncccn2)c(=O)n(-c2ccccc2)n1C,,-11.1,
NC(=O)C1CCCN(C(=O)c2ccc(NC(=O)c3cccs3)cc2)C1 (stereo not drawn),,-0.775,"3.66 µM [falling, partial curve]"
COc1ccc(Cl)cc1NC(=O)CN1CCc2ccccc2C1,"29.1 µM [falling, single point]",-35.9,"6.51 µM [falling, single point]"

SMILES,AC50 [1],cell number change [%],AC50 [2]
Cc1cc(C)n(-c2nc(SCC(=O)NCC3CCCO3)c3c4c(sc3n2)CCCC4)n1 (stereo not drawn),,-14.1,"29.1 µM [falling, single point]"
COc1cc(C(=O)NCc2cccc(Cl)c2)ccc1OCC(=O)N1CCOCC1,,27.1,"18.4 µM [rising, single point]"
Cc1ccccc1Oc1ccc(NC(=O)C2CC=CCC2C(=O)O)cc1 (stereo not drawn),,5.31,"3.26 µM [rising, single point]"
Cn1nnc2cc(NC(=O)NCc3ccc4c(c3)OCO4)ccc21,,6.12,"3.66 µM [rising, single point]"
Cc1ccc(NC(=O)COc2ccccc2)c(NC(=O)c2ccco2)c1,"0.103 µM [rising, full curve, poor fit]",,
CCn1c(=NC(=O)CSC(C)=O)sc2cc(F)ccc21,,-26,"6.51 µM [falling, single point]"
COc1ccc(NCc2ccc(OC)c(Cn3ccnc3)c2)c(OC)c1,"4.61 µM [rising, partial curve, poor fit]",8.12,"3.66 µM [rising, partial curve, poor fit]"
CC(C)CN(c1ccccc1)S(=O)(=O)c1nnc(NC(=O)c2ccco2)s1,,2.14,"3.66 µM [falling, single point]"
O=C(CSc1nnc(-c2ccc(O)cc2)n1Cc1ccccc1)NNC(=O)c1ccc(Br)cc1,"3.66 µM [falling, single point]",6.71,"2.06 µM [falling, partial curve]"
O=C1c2[nH]nc(-c3ccccc3O)c2C(c2cccc(Cl)c2)N1CC1CCCO1 (stereo not drawn),,7.56,"1.84 µM [rising, partial curve, poor fit]"
O=C(Nc1ccccc1)Nc1cccc2nsnc12,,-13.2,"29.1 µM [falling, single point]"
CCn1c(CNC(=O)c2ccco2)nnc1SCC(=O)Nc1ccccc1Cl,,-10.5,"29.1 µM [rising, single point]"
CCOc1ccc(NC(=O)COc2ccc(C(=O)NCCc3ccccc3)cc2)cc1,,15.4,"16.4 µM [rising, partial curve, poor fit]"
COc1ccc(-c2ccc(NC(=O)c3ccco3)cc2)nn1,,-8.22,"6.51 µM [falling, single point]"
CC1CCCN(S(=O)(=O)c2ccc(S(=O)(=O)NC(C)c3cccs3)cc2)C1 (stereo not drawn),"6.51 µM [rising, single point]",,
C=CCNc1nc(N)c([N+](=O)[O-])c(Nc2cccc(Cl)c2)n1,,-4.01,"0.461 µM [falling, full curve, poor fit]"
COc1cccc(CNCCOCCO)c1OC,,2.23,
O=C(O)CCCCCN1C(=O)C(=O)/C(=C(/O)c2ccccc2)C1c1ccccc1 (stereo not drawn),,-9.74,"0.13 µM [falling, full curve]"
O=C(NCCSCc1ccco1)Nc1cccc(Cl)c1,"6.51 µM [falling, single point]",,
CCc1cc(C(=O)NN2C(=O)NC3(CCCCC3)C2=O)sc1C,,5.09,
CN(C)c1oc(-c2ccco2)nc1S(=O)(=O)c1ccc(Br)cc1,"4.61 µM [rising, partial curve, poor fit]",37,"9.2 µM [rising, partial curve]"

# Entries from the list above that have a furan ring, fused or not:
SMILES,AC50 [1],cell number change [%],AC50 [2]
COc1ccc(-c2nc(NC(=O)C3CC(=O)N(Cc4ccco4)C3)sc2C)cc1 (stereo not drawn),"2.91 µM [falling, single point]",-8.29,"6.51 µM [falling, single point]"
CCCc1cc(=O)oc2c(C)c3occ(C)c3cc12,,14,"0.731 µM [rising, full curve]"
Cc1cccc(-c2cc3nc4c(c(NCc5ccco5)n3n2)CCCC4)c1,,-18.4,"2.06 µM [falling, full curve, poor fit]"
CCCc1cc(=O)n2[nH]c(NC(=O)c3ccco3)nc2n1,,19.2,
Cc1ccc(NC(=O)COc2ccccc2)c(NC(=O)c2ccco2)c1,"0.103 µM [rising, full curve, poor fit]",,
CC(C)CN(c1ccccc1)S(=O)(=O)c1nnc(NC(=O)c2ccco2)s1,,2.14,"3.66 µM [falling, single point]"
CCn1c(CNC(=O)c2ccco2)nnc1SCC(=O)Nc1ccccc1Cl,,-10.5,"29.1 µM [rising, single point]"
COc1ccc(-c2ccc(NC(=O)c3ccco3)cc2)nn1,,-8.22,"6.51 µM [falling, single point]"
O=C(NCCSCc1ccco1)Nc1cccc(Cl)c1,"6.51 µM [falling, single point]",,
CN(C)c1oc(-c2ccco2)nc1S(=O)(=O)c1ccc(Br)cc1,"4.61 µM [rising, partial curve, poor fit]",37,"9.2 µM [rising, partial curve]"
